Screen size: about 320,000 compounds; about 2,100 (0.66%) were called active. The inconclusive results got no clear call from the source; some entries with a clear call stand among them for comparison. Calls follow the shape of the dose curve; as a rule, active = well fitted inhibition curve with a large enough effect in the signal ratio, with a control signal flat (not every such curve was filed as active); inconclusive = small, poorly fitted or top-dose-only effect, or effect the other way, or a change in a side signal; inactive = flat fitted curve, though single readings scatter; the % refers to the signal ratio. Potencies of inconclusive entries are doubtful fits and often do not repeat.
Test: qHTS Assay for Lipid Storage Modulators in Drosophila S3 Cells
Details: BODIPY lipid droplet fluorescence, 18-24 h, cells fed with added oleic acid; lipid storage change, negative = inhibition: at 46.1 µM (top of the series) unless noted
Outline: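 Drosophila S3 cells got compounds at several concentrations plus oleic acid (400 uM solution). Laser-scanning cytometry with 488 nm excitation read lipid droplets at 500-530 nm and cells at 575-640 nm. Percent activity was relative to 20 uM Triacsin C.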
% is scaled to controls: 0 for no effect and ±100 for the full control effect; potency is read from the fitted curve at half-maximal effect.

Lipid storage change, negative = inhibition, inactive:
CCOc1ccccc1/C=N/n1nnnc1N
O=C(Cn1cccc1C(=O)c1ccccc1)NCCCN1CCOCC1
O=C(Nc1cccc(NC(=O)c2ccco2)c1)c1ccc([N+](=O)[O-])cc1
CCOc1ccc(-n2ccnc(SCC(=O)NCCc3ccccc3)c2=O)cc1

Lipid storage change, negative = inhibition, inconclusive:
COCCOC(=O)c1[nH]c2c(c1C)C(=O)CC(c1cc(OC)c(OC)c(OC)c1)C2 (stereo not drawn) -26.8%
O=C(Nc1nc(-c2ccc(Cl)s2)cs1)c1ccco1 -12.5%
c1ccc(C2CC(c3ccccc3)n3ncnc3N2)cc1 (stereo not drawn) 18.5%
CC1(C)CC(=O)C(C=NCCN2CCN(CC(=O)Nc3ccc(F)cc3)CC2)=C(O)C1 -4.55%
CC(C)(C)C(=O)OCCNc1nc(-c2ccccc2)nc2ccccc12 28%
COc1ccc2c(-c3ccccc3)cc(SCC(=O)N(C)C3CCS(=O)(=O)C3)nc2c1 (stereo not drawn) 12.8%
CSCC[C@H](NC=O)C(=O)N[C@@H](CC(C)C)C(=O)N[C@@H](Cc1ccccc1)C(=O)O -21.8%
CC(C)C[C@H](NC(=O)NCCc1ccc(Cl)cc1)C(=O)O 39.6%
CCN(C(=O)/C=C/c1ccc(OC)cc1)C1CCCCC1 -49.7%
COc1ccccc1NS(=O)(=O)c1cc(NC(=O)C2CC2)ccc1N1CCOCC1 30.6%
O=C(NCc1cccnc1)C1CC(c2ccc(Cl)c(Cl)c2)=NO1 (stereo not drawn) 44.9%
COc1cc(C(C(=O)NC2CCCC2)N(C(=O)Cc2cccs2)C2CC2)cc(OC)c1OC (stereo not drawn) 45.8%
COc1ccc(C(=O)Nc2ccnn2C2CCN(Cc3cnn(C)c3)CC2)cc1 -7.52%
N#C/C(=C\c1cccnc1)C(=O)Nc1ccc(SC(F)F)cc1 14.5%
c1ccc(Cc2ccc(OCCN3CCOCC3)cc2)cc1 -59.3%
COc1cccc(CN(C)Cc2nc(Cc3ccccc3Cl)no2)c1 17.8%
CC(C)(C)n1cnnc1Sc1ccc([N+](=O)[O-])cn1 -11.1%
CNc1cc(C)nc(-n2nc(C)cc2C)n1 11.3%
CCC(C)[C@@H](C(=O)NCC1CCC(C(=O)O)CC1)n1nnc2ccccc2c1=O (stereo partly drawn) 4.33%
CC(=O)c1sc(NC(=O)C2=NN(c3ccccc3)C(=O)CC2)nc1C 4.62%
Cc1nc2ccc(Cl)cc2nc(C)/c1=N\O -81.3%
CCOC(=O)/C(=N\Nc1ccccc1Cl)N(C)C1CCCCC1 -2.24%
Oc1ccc(Nc2nc(-c3cccs3)cs2)cc1 13.3%
O=[N+]([O-])c1cccc(/C=N/Nc2ccccn2)c1 41.2%
C(#CC1CCCCC1)c1ccc2c(c1)COc1c3ccccc3nn1-2 16.4%
O=S(=O)(/C=C/c1ccccc1)NCc1ccccc1Cl 101%
COc1ccc(/C=C(\NC(=O)c2ccccc2)C(=O)NCc2ccco2)cc1OC 29.9%
O=C(O)c1cccnc1Nc1cccc(C(F)(F)F)c1 -2.27%
CCN(CC)C(=O)Oc1ccnc2cc(Cl)ccc12 -25.5%
NC(=O)c1ccsc1NC(=O)CSc1nncs1 31.3%
CCCCNC(=O)C(c1ccc(OCC(=O)OC)c(C(=O)OC)c1)N(CCc1c[nH]c2ccccc12)C(=O)CCCCCN1C(=O)NC(c2ccc(-c3ccccc3)cc2)C(C(=O)OCc2ccccc2)=C1C (stereo not drawn) 9.93%
O=C(c1ccccc1)c1ccc(C(=O)N2CCOCC2)cc1 53.8%
COc1ccc(NC(=O)Cn2nnc(C(N)=O)c2N)c(OC)c1 -25.6%
COc1cccc(CNC(=O)Cc2ccc(-c3ccccc3)cc2)c1 30.5%
CNC(=S)NC1(C)CCS(=O)(=O)C1 (stereo not drawn) -16.5%
COc1ccc(CN2CC(C(=O)NCc3ccc4c(c3)OCO4)CC2=O)cc1 (stereo not drawn) -4.53%
CCNC(=O)Nc1ccc(OC)cc1OC -16.5% [at 9.22 µM]

2 consecutive records already listed, quoted:
Lipid storage change, negative = inhibition, inconclusive:
CSCC[C@H](NC=O)C(=O)N[C@@H](CC(C)C)C(=O)N[C@@H](Cc1ccccc1)C(=O)O -21.8%
CC(C)C[C@H](NC(=O)NCCc1ccc(Cl)cc1)C(=O)O 39.6%

Following part:

Potency, inconclusive:
Cc1cccc(Cn2c(NCC(C)O)nc3c2c(=O)n(C)c(=O)n3C)c1 (stereo not drawn) 0.13 µM [falling, full curve, poor fit]
COc1ccc(NC(=O)C(=S)NC2CCCCC2)cc1 16.4 µM [rising, partial curve]
C/C(=N/Nc1nc(C)c(C)s1)c1cccc([N+](=O)[O-])c1 14.6 µM [falling, single point]
CCOC(=O)c1ccc(NC(=O)c2cnccn2)cc1 5.17 µM [activator, partial curve, poor fit]
Cc1ccc2nc(N3CCC(C(=O)O)CC3)nc(-c3ccccc3)c2c1 9.2 µM [activator, partial curve]
C[N+](C)(C)CC(=O)N/N=C/c1c2ccccc2cc2ccccc12 0.58 µM [activator, single point]
COCCCNC(=O)/C(C#N)=C/c1cc(C)[nH]c1C 29.1 µM [falling, single point]
COc1ccc(OC)c(C(C(=O)NC2CCCCC2)N(Cc2ccco2)C(=O)c2ccccn2)c1 (stereo not drawn) 6.51 µM [activator, full curve]
COc1ccc(/C=C(\NC(=O)c2ccco2)C(=O)Nc2ccc(C(C)=O)cc2)cc1 14.6 µM [activator, partial curve]
CC(C)CN(C(=O)COC(=O)c1cc2ccccc2oc1=O)C1CCS(=O)(=O)C1 (stereo not drawn) 1.46 µM [falling, single point]
CC1(C)CC(=O)c2c(oc3cc(O)c(O)cc23)C1 6.51 µM [falling, partial curve, poor fit]

Potency, active:
CC(C)c1ccc(CN2C(=O)NC3(CCCCCC3)C2=O)cc1 18.4 µM

Reference: PubChem BioAssay AID2685 (National Center for Advancing Translational Sciences (NCATS), 2010)
